# Percent effect of library compounds

The chains behind the UniProt entries cited, without tags or fusion partners. Residues count along the entry.
UniProt P9WPC5, whole entry: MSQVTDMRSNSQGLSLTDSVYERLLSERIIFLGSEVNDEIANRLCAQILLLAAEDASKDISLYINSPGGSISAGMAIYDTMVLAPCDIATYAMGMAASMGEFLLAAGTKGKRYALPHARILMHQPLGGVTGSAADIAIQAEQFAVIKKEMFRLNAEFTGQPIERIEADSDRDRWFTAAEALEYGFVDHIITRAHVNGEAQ
UniProt P9WPC3, whole entry partner: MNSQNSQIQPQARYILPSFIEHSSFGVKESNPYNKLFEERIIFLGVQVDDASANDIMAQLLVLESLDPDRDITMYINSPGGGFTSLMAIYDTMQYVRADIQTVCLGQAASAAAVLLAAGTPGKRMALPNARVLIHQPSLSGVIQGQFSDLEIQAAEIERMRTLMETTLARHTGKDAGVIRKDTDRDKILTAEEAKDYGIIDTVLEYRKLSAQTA
UniProt I6X8D2, whole entry: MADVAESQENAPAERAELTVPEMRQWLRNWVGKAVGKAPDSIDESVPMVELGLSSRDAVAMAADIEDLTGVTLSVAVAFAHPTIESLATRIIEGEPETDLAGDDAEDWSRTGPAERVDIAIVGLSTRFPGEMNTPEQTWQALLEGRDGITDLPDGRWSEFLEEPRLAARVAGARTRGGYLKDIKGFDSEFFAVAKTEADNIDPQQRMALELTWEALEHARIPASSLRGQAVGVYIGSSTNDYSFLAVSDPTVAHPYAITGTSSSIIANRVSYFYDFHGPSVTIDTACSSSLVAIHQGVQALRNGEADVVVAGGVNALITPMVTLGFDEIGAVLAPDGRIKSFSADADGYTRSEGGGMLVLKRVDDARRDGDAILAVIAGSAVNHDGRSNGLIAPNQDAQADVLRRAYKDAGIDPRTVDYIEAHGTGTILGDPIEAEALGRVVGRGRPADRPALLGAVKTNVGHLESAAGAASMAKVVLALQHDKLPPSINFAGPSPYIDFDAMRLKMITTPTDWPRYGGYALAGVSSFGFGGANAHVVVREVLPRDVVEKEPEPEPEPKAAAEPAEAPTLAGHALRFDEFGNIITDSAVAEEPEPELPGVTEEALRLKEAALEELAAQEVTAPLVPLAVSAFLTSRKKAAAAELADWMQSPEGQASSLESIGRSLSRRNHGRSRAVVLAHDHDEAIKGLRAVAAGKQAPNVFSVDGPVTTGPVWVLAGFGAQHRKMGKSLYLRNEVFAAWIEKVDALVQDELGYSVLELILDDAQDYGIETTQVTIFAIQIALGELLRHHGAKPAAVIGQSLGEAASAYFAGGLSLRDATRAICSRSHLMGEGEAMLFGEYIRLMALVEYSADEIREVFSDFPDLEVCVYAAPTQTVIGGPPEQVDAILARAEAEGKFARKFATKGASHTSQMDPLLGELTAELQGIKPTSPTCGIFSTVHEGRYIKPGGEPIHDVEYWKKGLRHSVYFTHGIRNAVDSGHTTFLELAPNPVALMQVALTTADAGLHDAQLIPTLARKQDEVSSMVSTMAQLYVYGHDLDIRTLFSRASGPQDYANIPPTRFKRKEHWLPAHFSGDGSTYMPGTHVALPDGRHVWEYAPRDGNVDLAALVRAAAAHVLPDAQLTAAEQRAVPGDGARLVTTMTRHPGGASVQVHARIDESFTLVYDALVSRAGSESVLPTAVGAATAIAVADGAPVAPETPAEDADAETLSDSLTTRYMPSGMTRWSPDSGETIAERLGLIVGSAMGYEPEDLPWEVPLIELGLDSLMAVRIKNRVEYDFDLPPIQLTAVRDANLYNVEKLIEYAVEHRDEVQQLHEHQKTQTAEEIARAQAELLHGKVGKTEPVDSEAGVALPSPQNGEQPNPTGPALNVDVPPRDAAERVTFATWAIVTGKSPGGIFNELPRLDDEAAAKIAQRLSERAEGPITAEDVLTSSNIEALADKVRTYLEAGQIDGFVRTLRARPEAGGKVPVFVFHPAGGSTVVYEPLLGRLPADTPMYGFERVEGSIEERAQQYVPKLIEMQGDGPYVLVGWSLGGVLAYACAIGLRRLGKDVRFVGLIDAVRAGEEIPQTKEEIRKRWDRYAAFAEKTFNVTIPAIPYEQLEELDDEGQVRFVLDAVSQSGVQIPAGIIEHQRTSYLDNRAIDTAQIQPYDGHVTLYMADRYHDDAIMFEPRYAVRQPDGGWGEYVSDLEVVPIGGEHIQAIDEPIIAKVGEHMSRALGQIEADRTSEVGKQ
UniProt P9WNZ1, whole entry: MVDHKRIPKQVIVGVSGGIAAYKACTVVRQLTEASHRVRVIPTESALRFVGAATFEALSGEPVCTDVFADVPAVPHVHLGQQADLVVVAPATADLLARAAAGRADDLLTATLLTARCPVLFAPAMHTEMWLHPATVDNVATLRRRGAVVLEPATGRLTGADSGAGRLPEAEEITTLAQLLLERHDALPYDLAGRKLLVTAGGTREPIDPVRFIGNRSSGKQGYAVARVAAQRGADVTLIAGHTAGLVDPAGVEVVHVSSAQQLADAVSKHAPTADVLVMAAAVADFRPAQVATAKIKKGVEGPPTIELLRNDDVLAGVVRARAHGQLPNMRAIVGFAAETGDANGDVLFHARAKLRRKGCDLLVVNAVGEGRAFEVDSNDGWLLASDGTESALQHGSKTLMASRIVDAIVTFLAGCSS
UniProt A4I591, 1-473: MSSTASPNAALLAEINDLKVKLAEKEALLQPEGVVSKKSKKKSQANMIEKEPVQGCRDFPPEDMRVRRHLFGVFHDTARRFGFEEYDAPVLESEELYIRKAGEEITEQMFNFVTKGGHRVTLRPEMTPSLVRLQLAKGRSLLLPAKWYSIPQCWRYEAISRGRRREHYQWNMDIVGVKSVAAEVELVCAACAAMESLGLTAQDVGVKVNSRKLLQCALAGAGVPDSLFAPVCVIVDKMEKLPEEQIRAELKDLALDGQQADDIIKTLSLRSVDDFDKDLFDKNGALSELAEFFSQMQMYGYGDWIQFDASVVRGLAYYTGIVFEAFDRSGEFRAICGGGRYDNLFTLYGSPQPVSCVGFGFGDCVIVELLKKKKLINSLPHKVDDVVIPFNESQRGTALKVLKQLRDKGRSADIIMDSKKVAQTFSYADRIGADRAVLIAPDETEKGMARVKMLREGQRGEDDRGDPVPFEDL
UniProt Q4DA54, 1-478: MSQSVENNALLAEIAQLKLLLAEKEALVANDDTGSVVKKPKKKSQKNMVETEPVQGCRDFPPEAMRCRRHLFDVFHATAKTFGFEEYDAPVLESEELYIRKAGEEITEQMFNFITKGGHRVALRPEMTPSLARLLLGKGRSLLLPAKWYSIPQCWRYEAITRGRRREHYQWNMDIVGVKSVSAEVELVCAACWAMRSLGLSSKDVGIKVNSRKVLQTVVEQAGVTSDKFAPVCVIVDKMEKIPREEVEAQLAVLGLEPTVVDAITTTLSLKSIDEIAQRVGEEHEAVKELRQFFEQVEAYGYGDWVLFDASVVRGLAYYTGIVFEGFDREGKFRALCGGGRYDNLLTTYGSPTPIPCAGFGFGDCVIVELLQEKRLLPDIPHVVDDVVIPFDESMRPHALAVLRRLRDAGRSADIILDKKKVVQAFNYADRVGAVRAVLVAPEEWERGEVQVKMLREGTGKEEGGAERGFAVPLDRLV

From ChEMBL document CHEMBL3988442, “University of Dundee, Small-Polar-MMV Screening Library” (2021).

ClpP1P2: 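Protease assay of ClpP1P2, read by the AMC dye that it sets free. Target: ClpP1P2, Mycobacterium tuberculosis (UniProt P9WPC5 and UniProt P9WPC3). Compounds at 50 µM. Direction is inferred from only a few compounds that gave an IC50; most scored high, so higher reads as stronger inhibition. Most other retested compounds had strongly negative values. Of about 69,000 compounds tested this way, about 10 (0.015%) reached 50% or more in at least one test.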
Pks13 thioesterase: 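Polyketide synthase Pks13, Mycobacterium tuberculosis (UniProt I6X8D2). Enzyme assay of the thioesterase domain of polyketide synthase 13; the read-out is not stated. Compounds at 30 µM. Higher reads as stronger inhibition (inferred from which compounds were picked for retests). About 67,000 compounds were tested under these conditions; 0.46% (about 300) showed 50% or more at least once.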
CoaBC: 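Coenzyme A biosynthesis protein CoaBC, Mycobacterium tuberculosis (UniProt P9WNZ1). Enzyme assay of CoaBC with a phosphate dye (Biomol Green) read at 650 nm. Concentration: 30 µM. Higher reads as stronger inhibition, judged from the few compounds that gave an IC50. Most strong results did not repeat in a second test. Of about 67,000 compounds tested this way, about 40 (0.06%) reached 50% or more in at least one test.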
LiHisRS: 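Enzyme assay of histidyl-tRNA synthetase; the read-out is not stated. Target: Histidine-tRNA ligase, Leishmania infantum (UniProt A4I591). Tested at 30 µM. Higher reads as stronger inhibition (inferred: compounds with an IC50 in retests scored well above the rest). The assay is labelled LdHisRS but filed under L. infantum. Size under these conditions: about 69,000 compounds, about 410 of them at 50% or above in at least one test.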
TcHisRS: 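Enzyme assay of histidyl-tRNA synthetase; the read-out is not stated. Target: Histidine-tRNA ligase, Trypanosoma cruzi CL Brener (UniProt Q4DA54). Tested at 30 µM. The record gives no direction; compounds that gave an IC50 in retests scored well above the rest, so higher reads as stronger inhibition. Size under these conditions: about 69,000 compounds, about 31 of them at 50% or above in at least one test.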

Results are given as percent effect.
The controls that fix the scale are not given in the record; negative values are as filed.
The compounds are a random part of those screened.
Two or more numbers in one place are separate tests of the same structure; such repeats can differ widely.
A dash means the value is not listed here; it may have been measured.

structure,ClpP1P2,Pks13 thioesterase,CoaBC,LiHisRS,TcHisRS
CCCOc1cc(C)ccc1NC(=O)NCCC(=O)N(C)C,2.026,-7.172,5.33,21.15,2.479
CC(C)n1ccnc1C1CCCN(c2nc3ccccc3s2)C1 (centres unmarked),-0.4015,23.76,5.398,12.5,4.469
COCC1CN(CC2CCOCC2)Cc2cn(CC3CCCC3)nc21 (centres unmarked),-0.0552,-27.29,9.98,7.895,-1.149
Cc1ccc2c(c1)CCC21CCN(C(=O)CN(C)C)CC1,-13.59,-0.7944,-16.29,-431.4,7.843
OCCc1cc(CC2(NCc3ccc(C(F)(F)F)cc3)COC2)no1,-9.509,-36.76,7.419,19.44,0.4975
Cc1nc(C2CCCN2C(=O)CCc2ccccc2)ncc1C(N)=O (centres unmarked),-11.13,1.699,4.585,10,4.494
CC(NCCN1CCN(C(=O)C2CCCC2)CC1)c1cnn(C)c1 (centres unmarked),2.354,4.952,1.621,4.762,0
Cc1cccc(NS(=O)(=O)c2cc(C(=O)O)oc2C)c1,-4.334,-18.96,-2.789,5.479,9.474
CCn1c(C)nnc1SCCNc1nc(C)nc2ncccc12,4.017,-9.961,7.826,8.901,1.604
O=C1NCC[C@]12CN(CC1CCOCC1)C[C@H]2c1ccccc1,-4.527,3.421,4.242,1.923,-0.5587
CC(C)=CCN1CCC(c2nnc(CN3CCN(C)CC3)n2C)CC1,13.26,16.68,6.203,27.71,-3.659
O=C1CC(c2ccc(C(=O)O)cc2)c2ncn(-c3ccc(F)cc3)c2N1 (centres unmarked),2.158,-6.926,8.351,81.67,11.36
CCc1nc(CNCC2CCCN2c2cccnn2)no1 (centres unmarked),-29.45,-17.08,9.138,18.58,8.455
CCN(Cc1ccccc1)C(=O)CN1CCCCC1Cn1cncn1 (centres unmarked),-17.58,-12.57,2.071,16.13,4.167
Cn1cc(CN2CCOC(CCNC(=O)c3ccsc3)C2)cn1 (centres unmarked),-13.16,-9.567,9.287,5.714,4.082
CN(C)C(=O)c1cc2c(s1)CCN(C(=O)CCCN1CCCCC1)C2,2.791,-10.63,-0.2439,16,-2.941
Cc1ccc(NS(=O)(=O)c2cnn(-c3ccccc3)c2)c(C(=O)O)c1,1.447,-18.57,64.43 and 43.58,69.57,10
O=C(c1nc2sccn2c1-c1ncc[nH]1)N1CCCCC1,-11.06,-4.189,0.3645,13.04,3.96
N#Cc1cccc(NC(=O)N[C@H](CO)Cc2ccc(O)cc2)c1,-4.452,-,0.6135,0,0
COC1CN(C(=O)CC(C)C)CCC(=O)N(C)c2ccccc21 (centres unmarked),6.814,3.629,-0.7264,20.41,10.11
O=C(c1ccc(F)cc1)N1C[C@@H]2CCN(c3cccnc3)C[C@@H]2C1,-0.2121,-3.658,3.553,20.59,1.97
Cc1ccc(CCCC(=O)N2CCCC(CS(N)(=O)=O)C2)s1 (centres unmarked),-10.8,3.768,0.5063,13.16,1.22
Cc1cccc(N2CC[C@H]3[C@H]2CCN3C(=O)c2cnn(C)c2)n1,-0.9798,-25.47,3.415,15.97,0.9804
Cc1oc(C(=O)O)cc1S(=O)(=O)Nc1ccc(Cl)c(Cl)c1,-11.27,-10.21,9.96,8.219,3.158
Cc1noc(C)c1CN1CCc2ncc(Cn3cccn3)n2CC1,-1.865,-,1.138,4.202,2.941
O=C1OCCCN1Cc1nc(-c2ccc(N3CCCCC3)cc2)no1,-6.808,10.17,2.58,13.95,7.143
Cc1cc(O)nc(C2CN(CC3(O)CCOCC3)CCO2)n1 (centres unmarked),7.772,17.84,7.293,14.48,3.042
CNC(=O)C1(c2cnccn2)CCCN1C(=O)c1ccn(C)n1 (centres unmarked),-0.5015,-22.15,-0.5556,8.333,0.5405
O=C(N1CCCO1)[C@@]12CCO[C@@H]1CCN(Cc1ccsc1)C2,-6.823,-13.65,-8.015,9.722,8.571
Cc1c(Cl)c(C(=O)N2CC(c3cccnc3)C2)nn1C,-4.639,-5.839,9.091,19.18,-1.622
Cc1cc(NC(=O)C(c2cccc(F)c2)N2CCOCC2)ccn1 (centres unmarked),-7.234,24.96,6.343,20,2.174

For reference, 3 entries once more:

structure	ClpP1P2	Pks13 thioesterase	CoaBC	LiHisRS	TcHisRS
O=C(c1nc2sccn2c1-c1ncc[nH]1)N1CCCCC1	-11.06	-4.189	0.3645	13.04	3.96
Cc1cc(O)nc(C2CN(CC3(O)CCOCC3)CCO2)n1 (centres unmarked)	7.772	17.84	7.293	14.48	3.042
COC1CN(C(=O)CC(C)C)CCC(=O)N(C)c2ccccc21 (centres unmarked)	6.814	3.629	-0.7264	20.41	10.11